Here are results for one molecule from US20140227208A1, “COSMETIC COMPOSITIONS CONTAINING SUBSTITUTED AZOLE AND METHODS FOR ALLEVIATING MECHANICALLY-INDUCED SKIN INFLAMMATION” (The Procter & Gamble Company, priority 2013, published 2014).

Amino acid sequences for entries named in this document (tags omitted).
UniProt P08684, whole entry: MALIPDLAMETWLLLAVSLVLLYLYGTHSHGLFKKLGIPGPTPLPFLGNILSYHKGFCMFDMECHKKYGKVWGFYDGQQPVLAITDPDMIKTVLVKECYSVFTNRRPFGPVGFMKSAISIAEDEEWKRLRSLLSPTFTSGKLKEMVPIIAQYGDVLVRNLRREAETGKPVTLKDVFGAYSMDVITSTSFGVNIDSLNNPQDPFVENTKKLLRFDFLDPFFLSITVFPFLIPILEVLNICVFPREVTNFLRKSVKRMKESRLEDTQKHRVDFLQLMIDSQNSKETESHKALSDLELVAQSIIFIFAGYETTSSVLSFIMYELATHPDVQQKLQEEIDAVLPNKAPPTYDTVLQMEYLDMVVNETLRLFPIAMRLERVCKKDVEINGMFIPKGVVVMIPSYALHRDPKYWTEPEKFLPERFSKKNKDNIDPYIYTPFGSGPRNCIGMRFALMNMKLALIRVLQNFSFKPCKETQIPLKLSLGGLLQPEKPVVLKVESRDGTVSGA

The target of this data set is CYP3A4 (Homo sapiens, UniProt P08684). The data set can be described thus: In vitro CYP/CYP3A4 inhibition assay (P450-GLO Assay kit, Promega).

The structures given here were assigned with low confidence; some may be wrong.

As to `CCCCc1nc(Cl)c(CO)[nH]1`, the “Hit / no hit for inhibition of CYP3A4” value (human recombinant CYP3A4) was “no hit (weak/no inhibition (IC50 value>10 μM))”. Moreover, the IC50 (as a rule, the concentration that inhibits the measured activity by half) (read-out: IC50 (uM), CYP3A4 inhibition, human recombinant CYP3A4) was > 10 µM.
